Results from publication PMC6109179.
These are yes or no findings as the source states them, for the method shown. In cells and extracts the contact can be indirect. Some results given as binding are weak or reduced against the parent protein; the word gives no strength. Where a sequence is shown, tags or fusion partners need not be part of it.

Protein sequences, listed by entry. Tags and fused reporters are not part of them. Lines headed by an entry give the natural chain unless they say otherwise; changes in a name come on top.
UniProt P20823: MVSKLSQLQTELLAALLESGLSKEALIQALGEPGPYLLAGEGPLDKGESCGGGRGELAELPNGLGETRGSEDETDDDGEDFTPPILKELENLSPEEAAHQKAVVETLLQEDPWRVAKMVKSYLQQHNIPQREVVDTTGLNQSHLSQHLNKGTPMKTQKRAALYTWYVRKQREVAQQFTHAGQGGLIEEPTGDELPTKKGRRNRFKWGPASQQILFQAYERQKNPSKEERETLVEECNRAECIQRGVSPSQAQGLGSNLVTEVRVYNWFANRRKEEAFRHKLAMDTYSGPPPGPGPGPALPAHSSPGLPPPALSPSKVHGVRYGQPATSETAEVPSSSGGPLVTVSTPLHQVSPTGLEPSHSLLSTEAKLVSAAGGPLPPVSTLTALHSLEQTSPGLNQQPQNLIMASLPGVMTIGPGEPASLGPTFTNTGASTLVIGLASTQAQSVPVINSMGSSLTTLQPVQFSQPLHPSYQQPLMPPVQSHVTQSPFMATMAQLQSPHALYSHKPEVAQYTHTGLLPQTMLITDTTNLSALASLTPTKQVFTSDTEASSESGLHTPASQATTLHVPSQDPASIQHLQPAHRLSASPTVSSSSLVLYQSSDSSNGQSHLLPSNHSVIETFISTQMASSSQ

Experiments:
Test in all cases: co-IP; HEK293 cells transiently co-transfected with V5-tagged HNF-1A (WT or mutant) and Flag-tagged PIASγ; lysed in IP Lysis/Wash Buffer with 20 mM N-ethylmaleimide and protease inhibitors; immunoprecipitation with anti-V5 antibody (Pierce Co-IP kit), immunoblot with anti-Flag and anti-V5
[1] = molecular target: HNF-1A K205R, V5-tagged (human) (UniProt P20823)
[2] = molecular target: HNF-1A K273R, V5-tagged (human) (UniProt P20823)
[3] = molecular target: HNF-1A K506R, V5-tagged (human) (UniProt P20823)
[4] = molecular target: HNF-1A triple mutant K205RK273RK506R, V5-tagged (human) (UniProt P20823)
[5] = molecular target: hepatocyte nuclear factor-1α (HNF-1A), wild type, V5-tagged (human) (UniProt P20823)

Measured: binding

B1: protein inhibitor of activated STAT (PIASγ), Flag-tagged (enzyme, UniProt Q8N2W9 1-510)
chain: MAAELVEAKNMVMSFRVSDLQMLLGFVGRSKSGLKHELVTRALQLVQFDCSPELFKKIKELYETRYAKKNSEPAPQPHRPLDPLTMHSTYDRAGAVPRTPLAGPNIDYPVLYGKYLNGLGRLPAKTLKPEVRLVKLPFFNMLDELLKPTELVPQNNEKLQESPCIFALTPRQVELIRNSRELQPGVKAVQVVLRICYSDTSCPQEDQYPPNIAVKVNHSYCSVPGYYPSNKPGVEPKRPCRPINLTHLMYLSSATNRITVTWGNYGKSYSVALYLVRQLTSSELLQRLKTIGVKHPELCKALVKEKLRLDPDSEIATTGVRVSLICPLVKMRLSVPCRAETCAHLQCFDAVFYLQMNEKKPTWMCPVCDKPAPYDQLIIDGLLSKILSECEDADEIEYLVDGSWCPIRAEKERSCSPQGAILVLGPSDANGLLPAPSVNGSGALGSTGGGGPVGSMENGKPGADVVDLTLDSSSSSEDEEEEEEEEEDEDEEGPRPKRRCPFQKGLVPAC
binds: all assays above
